Results taken from the supplement of paper PMC11732987, “Enantioselective OTUD7B fragment discovery through chemoproteomics screening and high-throughput optimisation” (Communications Chemistry, 2025).
Some of the results follow. The data scatter; read single values as rough.

Amino acid sequences for entries named in this document (tags omitted). A change or cut given only in a name is not applied to a line headed by its entry. Residues count along the entry.
UniProt Q8N122, whole entry, looked up: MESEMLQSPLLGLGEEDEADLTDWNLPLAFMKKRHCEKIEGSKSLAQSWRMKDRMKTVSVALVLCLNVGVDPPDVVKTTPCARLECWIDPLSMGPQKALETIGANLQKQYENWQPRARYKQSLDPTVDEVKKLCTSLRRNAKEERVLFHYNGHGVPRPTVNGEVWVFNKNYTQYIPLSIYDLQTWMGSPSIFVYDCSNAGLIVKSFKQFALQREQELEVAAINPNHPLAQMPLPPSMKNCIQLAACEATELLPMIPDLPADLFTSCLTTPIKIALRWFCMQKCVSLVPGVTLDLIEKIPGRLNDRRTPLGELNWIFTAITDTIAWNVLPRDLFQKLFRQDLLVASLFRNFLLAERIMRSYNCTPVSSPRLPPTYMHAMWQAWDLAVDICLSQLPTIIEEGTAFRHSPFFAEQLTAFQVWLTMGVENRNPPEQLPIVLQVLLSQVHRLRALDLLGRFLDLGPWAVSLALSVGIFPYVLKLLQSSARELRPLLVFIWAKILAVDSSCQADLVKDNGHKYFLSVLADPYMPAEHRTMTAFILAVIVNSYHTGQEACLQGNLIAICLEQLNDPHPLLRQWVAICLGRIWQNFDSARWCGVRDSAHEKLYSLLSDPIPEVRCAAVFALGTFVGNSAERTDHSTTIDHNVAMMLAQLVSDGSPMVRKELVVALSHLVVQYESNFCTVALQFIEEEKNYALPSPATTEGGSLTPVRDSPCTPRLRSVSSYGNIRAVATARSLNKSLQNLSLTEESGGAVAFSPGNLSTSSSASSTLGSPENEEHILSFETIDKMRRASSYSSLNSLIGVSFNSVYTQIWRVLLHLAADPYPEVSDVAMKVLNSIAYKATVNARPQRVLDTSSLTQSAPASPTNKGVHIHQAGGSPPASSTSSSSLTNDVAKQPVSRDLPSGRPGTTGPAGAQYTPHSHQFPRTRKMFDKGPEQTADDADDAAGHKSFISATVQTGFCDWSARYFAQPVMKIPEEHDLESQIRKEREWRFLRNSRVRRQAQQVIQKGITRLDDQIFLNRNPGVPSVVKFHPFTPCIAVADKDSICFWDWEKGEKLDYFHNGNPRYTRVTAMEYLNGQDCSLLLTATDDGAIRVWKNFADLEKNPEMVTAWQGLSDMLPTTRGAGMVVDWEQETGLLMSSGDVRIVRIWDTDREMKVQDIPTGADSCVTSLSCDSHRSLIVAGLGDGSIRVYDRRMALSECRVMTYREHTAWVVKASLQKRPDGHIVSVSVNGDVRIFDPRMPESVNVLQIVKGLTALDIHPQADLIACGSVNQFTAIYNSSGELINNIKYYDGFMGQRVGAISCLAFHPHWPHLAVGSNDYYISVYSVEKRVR
UniProt P13489: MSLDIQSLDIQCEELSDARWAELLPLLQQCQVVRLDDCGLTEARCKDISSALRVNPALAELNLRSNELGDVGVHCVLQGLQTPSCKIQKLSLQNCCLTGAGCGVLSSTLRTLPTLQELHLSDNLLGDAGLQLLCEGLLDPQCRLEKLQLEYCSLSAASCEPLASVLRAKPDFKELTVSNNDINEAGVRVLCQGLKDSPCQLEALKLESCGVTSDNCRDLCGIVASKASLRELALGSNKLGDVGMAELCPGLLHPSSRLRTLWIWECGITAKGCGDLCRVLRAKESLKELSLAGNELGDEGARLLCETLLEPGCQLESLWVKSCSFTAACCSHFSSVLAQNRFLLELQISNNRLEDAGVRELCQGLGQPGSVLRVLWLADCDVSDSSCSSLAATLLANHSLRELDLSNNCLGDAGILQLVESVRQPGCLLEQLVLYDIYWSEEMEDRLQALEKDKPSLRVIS
UniProt Q9NZJ4: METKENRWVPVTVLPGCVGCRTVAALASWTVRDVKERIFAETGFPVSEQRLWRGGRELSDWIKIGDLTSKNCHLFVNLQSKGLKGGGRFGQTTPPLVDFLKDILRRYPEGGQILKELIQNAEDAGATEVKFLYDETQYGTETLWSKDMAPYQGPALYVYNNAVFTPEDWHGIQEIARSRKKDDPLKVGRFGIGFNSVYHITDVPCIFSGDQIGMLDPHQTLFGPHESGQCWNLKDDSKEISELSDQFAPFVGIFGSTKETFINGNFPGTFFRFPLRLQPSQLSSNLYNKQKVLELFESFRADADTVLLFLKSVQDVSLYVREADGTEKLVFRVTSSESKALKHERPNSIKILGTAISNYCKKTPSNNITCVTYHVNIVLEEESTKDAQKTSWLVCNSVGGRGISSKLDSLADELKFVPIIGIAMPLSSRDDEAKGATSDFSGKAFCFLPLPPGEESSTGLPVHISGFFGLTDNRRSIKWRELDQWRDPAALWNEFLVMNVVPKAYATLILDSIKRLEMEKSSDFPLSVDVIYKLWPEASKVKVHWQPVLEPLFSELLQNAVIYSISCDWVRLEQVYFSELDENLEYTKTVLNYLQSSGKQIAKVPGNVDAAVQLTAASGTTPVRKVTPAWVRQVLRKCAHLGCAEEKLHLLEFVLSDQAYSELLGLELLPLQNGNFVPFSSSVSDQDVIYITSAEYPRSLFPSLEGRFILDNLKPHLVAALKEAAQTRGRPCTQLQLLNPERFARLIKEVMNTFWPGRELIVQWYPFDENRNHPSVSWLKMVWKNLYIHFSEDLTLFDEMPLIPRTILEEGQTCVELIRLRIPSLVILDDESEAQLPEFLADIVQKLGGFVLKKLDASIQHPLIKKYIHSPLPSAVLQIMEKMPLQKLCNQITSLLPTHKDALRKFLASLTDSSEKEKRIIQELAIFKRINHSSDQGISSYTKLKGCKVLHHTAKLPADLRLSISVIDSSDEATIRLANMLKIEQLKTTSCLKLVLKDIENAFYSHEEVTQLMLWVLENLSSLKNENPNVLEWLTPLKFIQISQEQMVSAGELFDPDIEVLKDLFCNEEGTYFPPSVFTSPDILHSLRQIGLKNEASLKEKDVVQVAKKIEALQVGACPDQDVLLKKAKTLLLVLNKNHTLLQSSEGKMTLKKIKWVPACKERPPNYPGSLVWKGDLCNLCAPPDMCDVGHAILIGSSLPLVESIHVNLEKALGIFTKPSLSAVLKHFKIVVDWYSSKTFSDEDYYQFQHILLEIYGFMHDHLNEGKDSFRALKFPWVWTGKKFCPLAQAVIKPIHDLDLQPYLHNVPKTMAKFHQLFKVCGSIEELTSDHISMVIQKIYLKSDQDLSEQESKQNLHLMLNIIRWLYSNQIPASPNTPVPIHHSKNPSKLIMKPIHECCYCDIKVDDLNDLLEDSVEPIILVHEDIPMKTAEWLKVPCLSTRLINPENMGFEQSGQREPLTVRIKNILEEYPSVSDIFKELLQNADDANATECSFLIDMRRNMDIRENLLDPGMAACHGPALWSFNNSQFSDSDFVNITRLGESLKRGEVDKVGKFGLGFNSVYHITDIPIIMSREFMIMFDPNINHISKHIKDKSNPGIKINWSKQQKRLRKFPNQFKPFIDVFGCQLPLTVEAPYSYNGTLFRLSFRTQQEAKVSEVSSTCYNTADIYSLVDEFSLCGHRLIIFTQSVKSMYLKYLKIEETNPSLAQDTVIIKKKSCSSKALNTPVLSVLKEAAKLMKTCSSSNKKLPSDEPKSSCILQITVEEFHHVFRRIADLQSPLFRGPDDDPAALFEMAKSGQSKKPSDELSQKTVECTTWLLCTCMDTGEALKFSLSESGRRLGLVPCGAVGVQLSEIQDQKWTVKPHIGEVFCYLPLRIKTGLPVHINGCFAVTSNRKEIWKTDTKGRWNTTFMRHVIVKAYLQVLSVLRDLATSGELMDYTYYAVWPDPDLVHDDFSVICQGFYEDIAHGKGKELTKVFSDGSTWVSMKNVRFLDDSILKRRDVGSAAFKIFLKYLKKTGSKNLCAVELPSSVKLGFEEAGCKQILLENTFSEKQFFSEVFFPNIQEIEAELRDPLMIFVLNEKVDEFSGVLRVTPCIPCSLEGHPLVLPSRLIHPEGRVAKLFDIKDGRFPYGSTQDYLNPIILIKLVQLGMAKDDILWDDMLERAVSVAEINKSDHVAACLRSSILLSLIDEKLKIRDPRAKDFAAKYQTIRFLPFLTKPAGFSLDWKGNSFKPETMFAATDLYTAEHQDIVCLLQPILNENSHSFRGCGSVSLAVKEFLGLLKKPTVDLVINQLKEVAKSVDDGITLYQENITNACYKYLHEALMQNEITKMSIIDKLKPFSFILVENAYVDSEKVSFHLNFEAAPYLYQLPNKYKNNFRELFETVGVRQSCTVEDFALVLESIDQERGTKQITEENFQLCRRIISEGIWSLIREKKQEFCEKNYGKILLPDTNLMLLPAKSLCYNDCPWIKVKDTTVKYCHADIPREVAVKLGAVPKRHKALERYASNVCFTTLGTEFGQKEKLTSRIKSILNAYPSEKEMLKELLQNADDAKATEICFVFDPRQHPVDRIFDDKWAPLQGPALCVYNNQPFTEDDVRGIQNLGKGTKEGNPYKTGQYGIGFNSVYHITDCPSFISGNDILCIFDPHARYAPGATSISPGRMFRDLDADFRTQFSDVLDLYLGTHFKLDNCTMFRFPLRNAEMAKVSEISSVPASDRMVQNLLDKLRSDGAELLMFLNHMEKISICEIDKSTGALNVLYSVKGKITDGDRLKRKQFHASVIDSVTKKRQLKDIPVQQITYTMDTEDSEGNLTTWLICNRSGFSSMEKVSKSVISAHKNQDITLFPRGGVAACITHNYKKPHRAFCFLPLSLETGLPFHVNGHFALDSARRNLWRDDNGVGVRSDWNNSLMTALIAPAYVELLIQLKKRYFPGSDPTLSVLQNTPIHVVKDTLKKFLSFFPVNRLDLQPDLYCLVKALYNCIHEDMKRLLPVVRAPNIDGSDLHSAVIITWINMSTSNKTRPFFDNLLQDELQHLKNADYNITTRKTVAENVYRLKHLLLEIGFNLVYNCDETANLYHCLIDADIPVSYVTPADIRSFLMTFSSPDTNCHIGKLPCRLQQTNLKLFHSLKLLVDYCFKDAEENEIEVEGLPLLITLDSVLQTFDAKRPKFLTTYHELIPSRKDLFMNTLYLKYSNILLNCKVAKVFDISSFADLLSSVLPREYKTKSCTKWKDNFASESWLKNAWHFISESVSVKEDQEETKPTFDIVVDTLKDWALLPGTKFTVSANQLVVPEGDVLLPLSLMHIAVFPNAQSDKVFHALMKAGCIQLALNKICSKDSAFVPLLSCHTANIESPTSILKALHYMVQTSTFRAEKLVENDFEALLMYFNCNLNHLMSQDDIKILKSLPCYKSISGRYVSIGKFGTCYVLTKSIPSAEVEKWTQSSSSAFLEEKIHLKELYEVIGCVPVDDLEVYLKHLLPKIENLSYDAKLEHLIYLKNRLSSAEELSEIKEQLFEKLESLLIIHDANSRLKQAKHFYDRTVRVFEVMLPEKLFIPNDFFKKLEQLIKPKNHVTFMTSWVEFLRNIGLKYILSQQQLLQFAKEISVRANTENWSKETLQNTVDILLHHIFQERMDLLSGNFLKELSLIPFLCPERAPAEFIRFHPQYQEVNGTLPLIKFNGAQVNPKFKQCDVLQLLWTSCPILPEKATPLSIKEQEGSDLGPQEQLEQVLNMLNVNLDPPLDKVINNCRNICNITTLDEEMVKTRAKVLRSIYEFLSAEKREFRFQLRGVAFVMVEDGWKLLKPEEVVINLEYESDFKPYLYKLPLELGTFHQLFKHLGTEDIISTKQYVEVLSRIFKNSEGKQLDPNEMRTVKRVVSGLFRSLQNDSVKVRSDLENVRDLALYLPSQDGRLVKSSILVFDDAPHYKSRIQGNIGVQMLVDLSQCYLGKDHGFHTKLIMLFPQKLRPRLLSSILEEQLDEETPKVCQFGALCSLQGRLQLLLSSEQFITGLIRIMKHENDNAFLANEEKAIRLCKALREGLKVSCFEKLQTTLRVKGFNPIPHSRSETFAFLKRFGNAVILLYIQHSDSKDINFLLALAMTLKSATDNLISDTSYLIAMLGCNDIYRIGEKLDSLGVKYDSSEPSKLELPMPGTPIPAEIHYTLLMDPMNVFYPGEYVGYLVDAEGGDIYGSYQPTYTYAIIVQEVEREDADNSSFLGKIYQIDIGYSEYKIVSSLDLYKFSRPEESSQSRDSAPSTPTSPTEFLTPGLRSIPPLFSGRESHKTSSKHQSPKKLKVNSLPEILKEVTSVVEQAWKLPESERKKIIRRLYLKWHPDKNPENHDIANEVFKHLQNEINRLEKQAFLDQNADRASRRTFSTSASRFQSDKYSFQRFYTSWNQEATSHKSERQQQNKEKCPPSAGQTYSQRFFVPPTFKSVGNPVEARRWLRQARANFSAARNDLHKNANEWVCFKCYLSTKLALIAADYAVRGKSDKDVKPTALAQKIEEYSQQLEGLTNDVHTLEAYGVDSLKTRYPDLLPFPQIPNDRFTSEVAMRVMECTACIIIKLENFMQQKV
UniProt Q9UBF6, 2-23: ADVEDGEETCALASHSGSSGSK
UniProt Q99496, 162-196: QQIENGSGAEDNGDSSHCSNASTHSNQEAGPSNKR

Each target was assayed with ClCC(=O)N[C@H]1CCCc2ccccc12 (assay: log2 mean competition ratio of IA-DTB cysteine labelling (DMSO/compound) (log2 ratio); higher = stronger cysteine engagement by compound). Conditions: 50 µM; treatment time: 4 h; cell line lysate: HEK293T.
Protocol: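 IA-DTB competitive cysteine chemoproteomics in HEK293T RIPA lysate. Lysates were treated with compound 29 or 30 at 50 or 200 µM for 4 h, then IA-DTB (500 µM, 1 h), trypsin-digested, NeutrAvidin-enriched and analysed by diaPASEF. Competition ratio = intensity DMSO / intensity compound (n=4 treated, n=64 DMSO); binding: mean log2 CR ≥ 1 and p ≤ 0.05 plus QC filters. Target is the cysteine site.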

Row | Target | log2 mean competition ratio
1 | RNF213 C1325 | -0.152
2 | RPL32 C96 | -0.0574
3 | RPTOR C362 (UniProt Q8N122) | -0.122
4 | RWDD3 C80 (UniProt Q9Y3V2) | -0.255
5 | RPL3 C114 (UniProt P39023) | -0.102
6 | RPA1 C323 (UniProt P27694) | -0.553
7 | RPS6 C12 (UniProt P62753) | 0.399
8 | RNF213 C3261 | -0.0728
9 | RNF169 C337 (UniProt Q8NCN4) | -0.308
10 | RUSF1 C201 | -0.141
11 | RRBP1 C1216 (UniProt Q9P2E9) | -0.0138
12 | RNH1 C220 (UniProt P13489) | 0.477
13 | RNF213 C614 | 0.344
14 | SACS C3756 (UniProt Q9NZJ4) | 0.397
15 | RXRB C440 (UniProt P28702) | -0.273
16 | RPS3 C97 | 0.0288
17 | RPAP3 C519 (UniProt Q9H6T3) | -0.212
18 | RNPEP C181 (UniProt Q9H4A4) | -0.256
19 | RNMT C206 (UniProt O43148) | -0.158

Row | Target | log2 mean competition ratio
20 | RPAP1 C618 (UniProt Q9BWH6) | 0.366
21 | RPL4 C208 (UniProt P36578) | 0.447
22 | RNF7 C11 (UniProt Q9UBF6) | -0.0191
23 | RUVBL2 C227 (UniProt Q9Y230) | -0.39
24 | SACS C814 (UniProt Q9NZJ4) | -0.262
25 | RNF14 C350 (UniProt Q9UBS8) | 0.253
26 | RPL24 C36 (UniProt P83731) | 0.312
27 | RNF10 C483 (UniProt Q8N5U6) | -0.235
28 | RTN4 C1101 | 0.0679
29 | RNF168 C348 (UniProt Q8IYW5) | 0.781
30 | RPP25 C70 (UniProt Q9BUL9) | 0.357
31 | RPLP0 C27 | 0.243
32 | RRP1 C274 (UniProt P56182) | -0.0925
33 | ROR1 C482 | -0.258
34 | RNH1 C38 (UniProt P13489) | -0.629
35 | RPTOR C1202 (UniProt Q8N122) | -0.179
36 | RPRD1B C234 (UniProt Q9NQG5) | 0.00511
37 | RNF2 C179 (UniProt Q99496) | -0.392

Same assay, conditions: 200 µM; treatment time: 4 h; cell line lysate: HEK293T

Row | Target | log2 mean competition ratio
38 | RNF213 C1325 | -0.183
39 | RPL32 C96 | -0.0505
40 | RPTOR C362 (UniProt Q8N122) | 0.0107
41 | RWDD3 C80 (UniProt Q9Y3V2) | 0.0939
42 | RPL3 C114 (UniProt P39023) | -0.0894
43 | RPA1 C323 (UniProt P27694) | 0.0886
44 | RPS6 C12 (UniProt P62753) | 0.0526
45 | RNF213 C3261 | -0.14
46 | RNF169 C337 (UniProt Q8NCN4) | 0.12
47 | RUSF1 C201 | -0.00779
48 | RRBP1 C1216 (UniProt Q9P2E9) | -0.221
49 | RNH1 C220 (UniProt P13489) | -0.139
50 | RNF213 C614 | 1.34
51 | SACS C3756 (UniProt Q9NZJ4) | 0.00713
52 | RXRB C440 (UniProt P28702) | 0.31
53 | RPS3 C97 | 0.017
54 | RPAP3 C519 (UniProt Q9H6T3) | 0.087
55 | RNPEP C181 (UniProt Q9H4A4) | 0.553
56 | RNMT C206 (UniProt O43148) | 0.309

Row | Target | log2 mean competition ratio
57 | RPAP1 C618 (UniProt Q9BWH6) | 0.414
58 | RPL4 C208 (UniProt P36578) | 0.0455
59 | RNF7 C11 (UniProt Q9UBF6) | -0.166
60 | RUVBL2 C227 (UniProt Q9Y230) | -0.132
61 | SACS C814 (UniProt Q9NZJ4) | -0.337
62 | RNF14 C350 (UniProt Q9UBS8) | 0.232
63 | RPL24 C36 (UniProt P83731) | 0.0262
64 | RNF10 C483 (UniProt Q8N5U6) | -0.24
65 | RTN4 C1101 | -0.199
66 | RNF168 C348 (UniProt Q8IYW5) | -0.00758
67 | RPP25 C70 (UniProt Q9BUL9) | 0.188
68 | RPLP0 C27 | -0.288
69 | RRP1 C274 (UniProt P56182) | 0.0566
70 | ROR1 C482 | -0.0811
71 | RNH1 C38 (UniProt P13489) | 0.157
72 | RPTOR C1202 (UniProt Q8N122) | 0.183
73 | RPRD1B C234 (UniProt Q9NQG5) | -0.16
74 | RNF2 C179 (UniProt Q99496) | -0.267
